Source: PubChem BioAssay AID1671190 (National Center for Advancing Translational Sciences (NCATS), 2021)
The whole screen tested about 580,000 compounds, of which about 6,100 (1.1%) were called active. Inconclusive results, whose numbers are uncertain, are shown with a selection of clear calls. The call rests on the fitted dose curve; in most records, active means well fitted inhibition curve with a large enough effect; inconclusive means small, poorly fitted or top-dose-only effect, or another doubt; inactive means no such curve, though single readings can be large or run the other way. Where the call is inconclusive, the potency comes from a doubtful curve fit.

The chains behind the UniProt entries cited, without tags or fusion partners. Where a name states a change or a piece, a line headed by the entry shows the natural chain unless it says otherwise.
UniProt P18054: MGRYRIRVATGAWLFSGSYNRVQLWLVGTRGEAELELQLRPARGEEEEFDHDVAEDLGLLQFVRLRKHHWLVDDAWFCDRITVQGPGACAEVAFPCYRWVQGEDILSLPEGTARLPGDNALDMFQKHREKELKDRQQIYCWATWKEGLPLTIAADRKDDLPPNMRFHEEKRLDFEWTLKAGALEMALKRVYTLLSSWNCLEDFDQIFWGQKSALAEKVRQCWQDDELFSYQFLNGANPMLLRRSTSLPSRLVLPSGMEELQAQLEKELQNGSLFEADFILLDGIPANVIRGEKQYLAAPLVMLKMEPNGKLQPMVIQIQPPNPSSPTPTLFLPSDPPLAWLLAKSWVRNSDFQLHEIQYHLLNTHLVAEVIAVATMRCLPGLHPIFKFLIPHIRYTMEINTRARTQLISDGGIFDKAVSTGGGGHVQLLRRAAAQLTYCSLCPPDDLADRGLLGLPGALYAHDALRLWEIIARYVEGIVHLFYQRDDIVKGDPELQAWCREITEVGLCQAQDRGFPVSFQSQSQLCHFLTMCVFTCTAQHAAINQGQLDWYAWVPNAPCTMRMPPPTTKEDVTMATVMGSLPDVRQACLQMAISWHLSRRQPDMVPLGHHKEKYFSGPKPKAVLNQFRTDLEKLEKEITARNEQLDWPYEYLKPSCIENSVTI

Target: Polyunsaturated fatty acid lipoxygenase ALOX12 (Homo sapiens) (UniProt P18054)
Assay: Primary qHTS assay for inhibitors of human arachidonate 12S-lipoxygenase (ALOX12): Round 2
Details: purified 12hLO, xylenol orange hydroperoxide absorbance; series mostly up to 108 µM
In short: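 Purified human 12hLO at 150 nM in 25 mM Hepes, 0.01% Triton X-100, pH 7.0, preincubated 15 min at room temperature with compound. Reaction started with 40 uM arachidonic acid, 30 min at room temperature. Hydroperoxide measured by Fe-xylenol orange, 573/405 nm absorbance ratio.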
Potency means the concentration at half of the fitted maximal effect.

Compound	Potency
CCN(CC)c1ccc(/C=N/NC(=O)c2cnccn2)cc1	inactive
O=C(CSc1c(Cl)cccc1Cl)NC1CCCc2ccccc21 (centres undefined)	inconclusive: 89.1 µM [inhibitor, partial curve, poor fit]
O=C(CSc1nc2ccccc2c(=O)n1NC(=O)Cc1ccccc1)NCc1ccccc1Cl	inconclusive: 126 µM [inhibitor, single point]
COc1ccc(Cl)cc1NC(=O)CCN1C(=O)c2ccccc2Sc2ncccc21	inconclusive: 56.2 µM [inhibitor, partial curve, poor fit]
O=C(CC[C@@H]1CNC(=O)[C@@H]2C[C@H](NC(=O)Nc3cccc(Cl)c3)CN12)NCc1cccs1	inconclusive: 44.7 µM [inhibitor, partial curve]
CCCn1c(C(CO)Nc2nc(-c3cccc(Br)c3)cs2)nc2ccccc21 (centres undefined)	inconclusive: 70.8 µM [inhibitor, partial curve, poor fit]
CC(=O)NC1(C)CCN(Cc2ccc(-c3cccc(F)c3)cc2)C1 (centres undefined)	active: 50.1 µM
Cc1c(C(=O)NCCNc2ncc(C(F)(F)F)cc2Cl)cccc1[N+](=O)[O-]	inconclusive: 10 µM [inhibitor, full curve, poor fit]
CC1(C(=O)NCCCNc2ncc(C(F)(F)F)cc2Cl)C=CCN1C(=O)c1ccccc1 (centres undefined)	inconclusive: 35.5 µM [inhibitor, single point]
CCOC(=O)N1CCN(Cc2nc3cc(NC(=O)c4ccccc4Cl)ccc3n2CC)CC1	inactive
CCN1CCN(CC2COc3ccccc3O2)CC1 (centres undefined)	inconclusive: 28.2 µM [inhibitor, partial curve, poor fit]
Cc1n[nH]c(=S)n(NC(=O)/C=C/C(=O)Nn2c(=S)[nH]nc(C)c2=O)c1=O	inconclusive: 44.7 µM [inhibitor, partial curve, poor fit]
O=C(CNc1ccc(Oc2ccccc2)cc1)N1CCOCC1	inconclusive: 0.631 µM [inhibitor, full curve, poor fit]
N#Cc1c(N)[nH]c(C(=O)c2ccccc2)c1-c1ccc(Cl)cc1	inconclusive: 100 µM [inhibitor, single point]
CCOc1ccc(S(=O)(=O)N2CCN(C(C(=O)O)c3c[nH]c4cc(F)ccc34)CC2)cc1 (centres undefined)	inconclusive: 22.4 µM [inhibitor, partial curve, poor fit]
O=C(/C=C/c1cccnc1)c1cc(F)ccc1O	inactive
COc1ccc(C2CC(c3cccc(OC)c3)=NN2c2ccc(S(N)(=O)=O)cc2)cc1 (centres undefined)	inconclusive: 11.2 µM [inhibitor, partial curve]
Cc1cccc(N(C)C(=O)COC(=O)c2ccc(F)c(Cl)c2)c1	inconclusive: 5.01 µM [inhibitor, full curve, poor fit]
Cc1cc(C)c2[nH]c(=O)c(CN(Cc3cccs3)C(=S)NCC3CCCO3)cc2c1 (centres undefined)	inconclusive: 35.5 µM [inhibitor, partial curve]
COc1ccc(/C=N/Nc2ccc([N+](=O)[O-])cc2S(=O)(=O)N2CCN(C)CC2)cc1	inactive
Cc1cc(C)c2c(=O)cc(CSc3nnc(-c4ccccc4)n3C)[nH]c2c1	inconclusive: 141 µM [inhibitor, partial curve, poor fit]
Brc1ccc(CSc2c[nH]c3ccccc23)cc1	inconclusive: 39.8 µM [inhibitor, partial curve, poor fit]

Looked up by compound from above (2):
Compound	Potency
N#Cc1c(N)[nH]c(C(=O)c2ccccc2)c1-c1ccc(Cl)cc1	inconclusive: 100 µM [inhibitor, single point]
CCOC(=O)N1CCN(Cc2nc3cc(NC(=O)c4ccccc4Cl)ccc3n2CC)CC1	inactive

(continued)

Compound	Potency
C1CNCCOCCNCCN1	inactive
CCC(C)NC(=O)N1c2ccccc2Sc2ccccc21 (centres undefined)	inconclusive: 44.7 µM [inhibitor, partial curve, poor fit]
CC(C)(C)C1CCC(OC(=O)C[N+]2(C)CCCCC2)CC1 (centres undefined)	inconclusive: 39.8 µM [inhibitor, partial curve]
COC(=O)c1ccccc1OCC(=O)N1CCN(c2ccc(OC)cc2)CC1	inconclusive: 63.1 µM [inhibitor, partial curve, poor fit]
COC(=O)c1ccccc1NC(=O)Nc1cccs1	inconclusive: 11.2 µM [inhibitor, partial curve, poor fit]
CCN1CCN(c2ccc(S(=O)(=O)N3CCCCC3)cc2NC(=O)/C=C/c2ccc(Cl)cc2)CC1	inconclusive: 44.7 µM [inhibitor, partial curve, poor fit]
CCCC(CCC)C(=O)Nc1cccc(-c2nc3cccnc3s2)c1	inconclusive: 56.2 µM [inhibitor, partial curve, poor fit]
Cc1cc(N2CCOCC2)nc(Nc2ccc(NC(=O)Nc3cccc(Cl)c3)cc2)n1	inconclusive: 89.1 µM [inhibitor, partial curve, poor fit]
O=C(Nc1nc2c(s1)CCCC2)c1cccs1	inactive
c1coc(CN2CCN(Cc3ccc(OCc4ccncc4)cc3)CC2)c1	inactive
CC(=O)Nc1ccc(NS(=O)(=O)c2ccc3[nH]c4c(c3c2)CCCCC4)cc1	inconclusive: 44.7 µM [inhibitor, partial curve, poor fit]
Cc1n[nH]c(C)c1S(=O)(=O)N1CCC(C)CC1	inconclusive: 56.2 µM [inhibitor, full curve, poor fit]
CC(=O)Oc1cc2c(C(=O)NCCCN3CCOCC3)c(C)oc2c2ccccc12	inactive
CC(=O)Nc1ccc(N=Cc2ccc(N(C)C)cc2)cc1	inactive
O=C(Nc1ccccc1C(=O)Nc1nnc(C(F)(F)F)s1)c1ccccc1Cl	inconclusive: 6.31 µM [inhibitor, full curve, poor fit]
O=C(/C=C/c1ccccc1[N+](=O)[O-])OCCCC(=O)c1ccc(Br)cc1	inconclusive: 15.8 µM [inhibitor, full curve]
Cc1cccc(-c2sc(Nc3ccccc3)n[n+]2-c2ccccc2)c1	inconclusive: 25.1 µM [inhibitor, partial curve]
CCC/C=C/c1ccc(CN2C(C)C(=O)N(Cc3cn(Cc4ccco4)nn3)CCS2(=O)=O)cc1 (centres undefined)	inconclusive: 31.6 µM [inhibitor, partial curve]
CN1C(=O)/C(=C/c2ccc(-c3ccccc3[N+](=O)[O-])o2)SC1=Nc1ccc(Cl)c(C(=O)O)c1	inconclusive: 50.1 µM [inhibitor, partial curve, poor fit]
CCCCn1c(-c2ccc([N+](=O)[O-])cc2)n[nH]c1=S	inconclusive: 50.1 µM [inhibitor, partial curve, poor fit]
COc1ccc(OCc2cc(C(=O)NCCN3CCCC(O)C3)no2)c(Cl)c1 (centres undefined)	inactive
Cc1ccc(O)c(C2=NOC(O)(C(F)(F)C(F)F)C2)c1 (centres undefined)	inconclusive: 15.8 µM [inhibitor, full curve]

Compound	Potency
CC(C)OC(=O)CSc1nc(N)c(C#N)c(-c2ccco2)c1C#N	inconclusive: 70.8 µM [inhibitor, partial curve, poor fit]
S=C(NCc1ccco1)Nc1cccc(Cl)c1Cl	inconclusive: 112 µM [inhibitor, single point]
Cc1cc(SCC(=O)N/N=C/c2ccc(O)cc2O)nc2ccccc12	inactive
CCc1c(C)sc(NC(=O)CCC(=O)O)c1C(=O)NC1CC1	inconclusive: 3.16 µM [inhibitor, full curve, poor fit]
C[C@@H]1CN([C@@H](C)CO)C(=O)CCCn2nncc2CO[C@@H]1CN(C)C(=O)Nc1ccc(C(C)(C)C)cc1	inconclusive: 5.62 µM [inhibitor, partial curve, poor fit]
Cc1cc(CN(C)C(=O)CC2C(=O)NCCN2Cc2c(F)cccc2Cl)n[nH]1 (centres undefined)	inactive
N[C@](CC1c2ccccc2Oc2ccccc21)(C(=O)O)[C@@H]1C[C@@H]1C(=O)O	inconclusive: 0.708 µM [inhibitor, full curve, poor fit]
O=C(NCC(c1ccco1)N1CCCCC1)c1cccc(S(=O)(=O)Nc2ccc(F)cc2)c1 (centres undefined)	inconclusive: 89.1 µM [inhibitor, partial curve, poor fit]
O=c1[nH]c(N2CCOCC2)cc2ccccc12	inactive
C=CCN(CC=C)Cc1c(O)ccc2c1oc(=O)c1ccccc12	inconclusive: 0.794 µM [inhibitor, full curve, poor fit]
COCCn1c(=S)[nH]c2cc(C(=O)N3CCC(C(N)=O)(N4CCCCC4)CC3)ccc2c1=O	inconclusive: 8.91 µM [inhibitor, full curve, poor fit]
Nc1ncnc2c1c(I)cn2C1OC(CO)C(O)C1O (centres undefined)	inactive
CC(=C/c1ccccc1)/C=N/Nc1ccc(Cl)cc1	inactive
Cc1cccc(NC(=S)NNC(=O)c2csc3c2CCCC3)c1	inconclusive: 50.1 µM [inhibitor, partial curve, poor fit]
CCNC(=O)CC12CC3CC(C1)CC(CC(=O)NCC)(C3)C2	inactive
O/N=C1\CCCOc2ccc(Br)cc21	inactive
COc1cccc(Cn2c(C)c(CNCc3ccccc3Cl)c(C(=O)O)c2C)c1	inconclusive: 89.1 µM [inhibitor, partial curve, poor fit]
Cc1ccc2nsnc2c1NC(=S)NC(=O)c1ccco1	inconclusive: 44.7 µM [inhibitor, partial curve, poor fit]
COCc1cc(C)nc(SCc2ccc([N+](=O)[O-])cc2)c1C#N	inconclusive: 10 µM [inhibitor, full curve, poor fit]
Cc1ccc(-n2c(-c3cccc(C)c3)n[nH]c2=S)cc1	inconclusive: 17.8 µM [inhibitor, partial curve, poor fit]

3 neighbouring entries from above, quoted:
Compound	Potency
Cc1ccc2nsnc2c1NC(=S)NC(=O)c1ccco1	inconclusive: 44.7 µM [inhibitor, partial curve, poor fit]
COCc1cc(C)nc(SCc2ccc([N+](=O)[O-])cc2)c1C#N	inconclusive: 10 µM [inhibitor, full curve, poor fit]
Cc1ccc(-n2c(-c3cccc(C)c3)n[nH]c2=S)cc1	inconclusive: 17.8 µM [inhibitor, partial curve, poor fit]
